Test results: article PMC10641069, “Intra- and inter-molecular regulation by intrinsically-disordered regions governs PUF protein RNA binding” (Nature Communications, 2023)
No constants are given. Whether binding was seen depends on the method and setting.

Target: T1, FBF-2 RBD + CT (FBF-2 residues 164-632) (C. elegans) (UniProt Q09312)
T1 sequence: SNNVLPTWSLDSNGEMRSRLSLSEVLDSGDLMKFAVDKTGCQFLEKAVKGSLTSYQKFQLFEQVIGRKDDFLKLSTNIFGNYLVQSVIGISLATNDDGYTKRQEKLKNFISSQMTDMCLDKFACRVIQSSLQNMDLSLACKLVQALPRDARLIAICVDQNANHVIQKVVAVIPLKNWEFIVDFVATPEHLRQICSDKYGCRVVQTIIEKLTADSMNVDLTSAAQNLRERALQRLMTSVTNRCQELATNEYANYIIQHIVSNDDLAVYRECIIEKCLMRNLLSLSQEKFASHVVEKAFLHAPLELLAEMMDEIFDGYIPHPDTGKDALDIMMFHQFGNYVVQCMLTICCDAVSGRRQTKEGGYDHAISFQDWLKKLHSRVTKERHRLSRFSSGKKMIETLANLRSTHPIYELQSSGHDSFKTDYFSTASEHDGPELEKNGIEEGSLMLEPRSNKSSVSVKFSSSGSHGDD
Experiment: condition: LST-1 100–400 µM in the syringe, FBF-2 10–30 µM in the cell; ITC; peptide (100–400 µM) titrated from the syringe into the cell containing FBF-2 (10–30 µM); 20 °C; 20 mM HEPES pH 7.4, 150 mM NaCl, 0.5 mM TCEP; no RNA; one-site model; mean of two replicates; both purified

B1: LST-1 A peptide (LST-1 residues 19-50) (peptide, UniProt P91820 19-50, looked up)
chain: STIAYSKSQHEAPKQLLQLRSEIKPLIPLNQP
notes: The tag was cleaved with Ulp1 protease; also called LST-1^19–50; source: E. coli, purified (Ni-NTA, HiTrap Q flow-through, Superdex 75); not shown: His6-SUMO, N-terminal, cleaved
binding: no binding
